The assay has as its target TEM-1 beta-lactamase (E. coli) (UniProt P62593). In words: SEC-MALS; S75 column (GE Healthcare) coupled to multiple angle light scattering (Wyatt); purified recombinant protein without the GFP tag; both purified. On the technique in general: Size exclusion chromatography separates by hydrodynamic size, large species first.

Sequences of proteins named here, by UniProt entry; tags and fusion partners are left off. Residues count along the entry.
UniProt P62593, residues 24-286: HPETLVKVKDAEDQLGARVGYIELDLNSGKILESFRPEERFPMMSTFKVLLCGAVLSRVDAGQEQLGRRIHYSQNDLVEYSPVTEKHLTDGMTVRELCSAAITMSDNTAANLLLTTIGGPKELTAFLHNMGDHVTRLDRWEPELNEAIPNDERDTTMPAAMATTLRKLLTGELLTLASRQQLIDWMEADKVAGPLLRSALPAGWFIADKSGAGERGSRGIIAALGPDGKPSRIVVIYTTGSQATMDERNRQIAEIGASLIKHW

No constants are given. Whether binding was seen depends on the method and setting.

On to “TEM-1 beta-lactamase (from UniProt P62593 24-286) (enzyme)”, for which the binding result is on record as “no binding”.

Values taken from publication PMC10492782, “Exploiting the aggregation propensity of beta-lactamases to design inhibitors that induce enzyme misfolding” (Nature Communications, 2023).
